{"source": "PubChem BioAssay AID743454 (Peter MacCallum Cancer Centre, 2014)", "aim": "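Search for knock-downs that restore vorinostat killing in resistant colon cancer cells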 (primary screen)", "cell system": "human HCT116-VR colon cancer cells, selected for vorinostat resistance", "knock-down reagent": "siRNA pool against human genes, 40 nM siRNA pool", "duration": "vorinostat for 24 h, read-out about 72 h after transfection", "challenge": "vorinostat at 2.5 µM final", "read-out": "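Two measures, CellTiter-Fluor viability and luminescent caspase 3/7 activity, each as fold change against same-plate mock wells, mean of duplicates, then screen-wide robust z-score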", "scale": "viability robust z-score: higher = more viable cells than screen typical; caspase robust z-score: higher = more caspase 3/7 activity than screen typical", "hit rule": "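a knock-down is a hit when classed RV1 or RV2 for lowered viability, or CA1 or CA2 for caspase activation; those lethal without drug were dropped; hits were retested singly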", "note": "Shown is an unselected part of about 18,000 reagents. Of all reagents, 450 (2.5%) are marked active. 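Single biological run; no consistent viability z cut-off exists, so the class columns, not z-scores, define the calls.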 A number with no mark means an inactive call."}
{"Gene":"SLC9A4","PubChem SID":"SID152153084","viability hit class":"no change","caspase hit class":"no change","viability robust z-score":1.88,"caspase robust z-score":-0.43}
{"Gene":"C1orf94 (chromosome 1 open reading frame 94)","PubChem SID":"SID134319099","viability hit class":"no change","caspase hit class":"no change","viability robust z-score":-0.89,"caspase robust z-score":2.2}
{"Gene":"SNX25 (sorting nexin 25)","PubChem SID":"SID135622812","viability hit class":"no change","caspase hit class":"no change","viability robust z-score":0.88,"caspase robust z-score":-0.86}
{"Gene":"GLYATL1 (glycine-N-acyltransferase like 1)","PubChem SID":"SID135621913","viability hit class":"no change","caspase hit class":"no change","viability robust z-score":-0.79,"caspase robust z-score":-0.91}
{"Gene":"EGFL7 (EGF like domain multiple 7)","PubChem SID":"SID134319698","viability hit class":"no change","caspase hit class":"no change","viability robust z-score":-0.64,"caspase robust z-score":1.58}
{"Gene":"LARGE1 (LARGE xylosyl- and glucuronyltransferase 1)","PubChem SID":"SID152150254","viability hit class":"no change","caspase hit class":"no change","viability robust z-score":0.44,"caspase robust z-score":-0.1}
{"Gene":"FHL5 (four and a half LIM domains 5)","PubChem SID":"SID134312033","viability hit class":"no change","caspase hit class":"no change","viability robust z-score":1.09,"caspase robust z-score":0.02}
{"Gene":"R3HDML (R3H domain containing like)","PubChem SID":"SID152150498","viability hit class":"no change","caspase hit class":"no change","viability robust z-score":0.84,"caspase robust z-score":-0.14}
{"Gene":"EIF4E (eukaryotic translation initiation factor 4E)","PubChem SID":"SID152155755","viability hit class":"no change","caspase hit class":"no change","viability robust z-score":-1.23,"caspase robust z-score":-0.23}
{"Gene":"HSPA12A (heat shock protein family A (Hsp70) member 12A)","PubChem SID":"SID152153532","viability hit class":"no change","caspase hit class":"no change","viability robust z-score":0.33,"caspase robust z-score":0.36}
{"Gene":"ADAMTS7 (ADAM metallopeptidase with thrombospondin type 1 motif 7)","PubChem SID":"SID152154351","viability hit class":"no change","caspase hit class":"no change","viability robust z-score":-0.62,"caspase robust z-score":0.08}
{"Gene":"KIF2A (kinesin family member 2A)","PubChem SID":"SID135620917","viability hit class":"no change","caspase hit class":"no change","viability robust z-score":-0.96,"caspase robust z-score":-0.38}
{"Gene":"LEMD2 (LEM domain nuclear envelope protein 2)","PubChem SID":"SID134321840","viability hit class":"no change","caspase hit class":"no change","viability robust z-score":0.45,"caspase robust z-score":-1.12}
{"Gene":"DVL3 (dishevelled segment polarity protein 3)","PubChem SID":"SID135620780","viability hit class":"no change","caspase hit class":"no change","viability robust z-score":0.1,"caspase robust z-score":-0.04}
{"Gene":"SEPTIN10 (septin 10)","PubChem SID":"SID134321302","viability hit class":"no change","caspase hit class":"no change","viability robust z-score":-1.64,"caspase robust z-score":-0.31}
{"Gene":"PPDPF","PubChem SID":"SID135622719","viability hit class":"no change","caspase hit class":"no change","viability robust z-score":1.05,"caspase robust z-score":0.32}
{"Gene":"SAG (S-antigen visual arrestin)","PubChem SID":"SID152151211","viability hit class":"no change","caspase hit class":"no change","viability robust z-score":0.29,"caspase robust z-score":0.67}
{"Gene":"IGLL3P (immunoglobulin lambda like polypeptide 3, pseudogene)","PubChem SID":"SID135624460","viability hit class":"no change","caspase hit class":"no change","viability robust z-score":0.36,"caspase robust z-score":-0.07}
{"Gene":"IGFL1 (IGF like family member 1)","PubChem SID":"SID134326848","viability hit class":"no change","caspase hit class":"no change","viability robust z-score":0.1,"caspase robust z-score":-0.09}
{"Gene":"RNF26 (ring finger protein 26)","PubChem SID":"SID135621305","viability hit class":"no change (active)","caspase hit class":"CA2 (caspase activation)","viability robust z-score":-2.7,"caspase robust z-score":14.1}
{"Gene":"ZC3H18 (zinc finger CCCH-type containing 18)","PubChem SID":"SID134322157","viability hit class":"no change","caspase hit class":"no change","viability robust z-score":-0.88,"caspase robust z-score":1.64}
{"Gene":"TIPE2 (TNF alpha induced protein 8 like 2)","PubChem SID":"SID135622726","viability hit class":"no change","caspase hit class":"no change","viability robust z-score":0.43,"caspase robust z-score":-0.6}
{"Gene":"CKAP5 (cytoskeleton associated protein 5)","PubChem SID":"SID152155217","viability hit class":"no change","caspase hit class":"no change","viability robust z-score":-4.19,"caspase robust z-score":1.13}
{"Gene":"RPS28 (ribosomal protein S28)","PubChem SID":"SID152153113","viability hit class":"RV2 (reduced viability) (active)","caspase hit class":"no change","viability robust z-score":-3.71,"caspase robust z-score":-1.66}
{"Gene":"TBC1D1 (TBC1 domain family member 1)","PubChem SID":"SID152147067","viability hit class":"no change","caspase hit class":"no change","viability robust z-score":0.64,"caspase robust z-score":-0.52}
{"Gene":"PTPRG (protein tyrosine phosphatase receptor type G)","PubChem SID":"SID56479207","viability hit class":"no change","caspase hit class":"no change","viability robust z-score":1.58,"caspase robust z-score":0.26}
{"Gene":"CHRNB4 (cholinergic receptor nicotinic beta 4 subunit)","PubChem SID":"SID152148862","viability hit class":"no change","caspase hit class":"no change","viability robust z-score":-2.15,"caspase robust z-score":-0.42}

Entries above whose target name begins with E or e:
{"Gene":"EGFL7 (EGF like domain multiple 7)","PubChem SID":"SID134319698","viability hit class":"no change","caspase hit class":"no change","viability robust z-score":-0.64,"caspase robust z-score":1.58}
{"Gene":"EIF4E (eukaryotic translation initiation factor 4E)","PubChem SID":"SID152155755","viability hit class":"no change","caspase hit class":"no change","viability robust z-score":-1.23,"caspase robust z-score":-0.23}
